Reference: PMC13294203
These are yes or no findings as the source states them, for the method shown. Some binding calls cover weakened binding; strength is not graded here.

Molecular target: human potassium-chloride cotransporter KCC4 (KCC4a) (human) (UniProt Q9Y666)
Experiment: cryo-EM structure; single-particle cryo-EM of purified KCC4 in 0.02% GDN, 30 mmol/L Tris pH 8.0, in six ion conditions (150 mmol/L KCl, LiCl, NaCl, KNO3, NaNO3, or 140 mmol/L NaCl + 10 mmol/L RbCl); C2 symmetry applied; 2.38-2.58 Å; both purified

B1: human potassium-chloride cotransporter KCC4 (KCC4a) (protein, UniProt Q9Y666 1-1083)
chain: MPTNFTVVPVEAHADGGGDETAERTEAPGTPEGPEPERPSPGDGNPRENSPFLNNVEVEQESFFEGKNMALFEEEMDSNPMVSSLLNKLANYTNLSQGVVEHEEDEESRRREAKAPRMGTFIGVYLPCLQNILGVILFLRLTWIVGVAGVLESFLIVAMCCTCTMLTAISMSAIATNGVVPAGGSYYMISRSLGPEFGGAVGLCFYLGTTFAGAMYILGTIEIFLTYISPGAAIFQAEAAGGEAAAMLHNMRVYGTCTLVLMALVVFVGVKYVNKLALVFLACVVLSILAIYAGVIKSAFDPPDIPVCLLGNRTLSRRSFDACVKAYGIHNNSATSALWGLFCNGSQPSAACDEYFIQNNVTEIQGIPGAASGVFLENLWSTYAHAGAFVEKKGVPSVPVAEESRASALPYVLTDIAASFTLLVGIYFPSVTGIMAGSNRSGDLKDAQKSIPTGTILAIVTTSFIYLSCIVLFGACIEGVVLRDKFGEALQGNLVIGMLAWPSPWVIVIGSFFSTCGAGLQSLTGAPRLLQAIARDGIVPFLQVFGHGKANGEPTWALLLTVLICETGILIASLDSVAPILSMFFLMCYLFVNLACAVQTLLRTPNWRPRFKFYHWTLSFLGMSLCLALMFICSWYYALSAMLIAGCIYKYIEYRGAEKEWGDGIRGLSLNAARYALLRVEHGPPHTKNWRPQVLVMLNLDAEQAVKHPRLLSFTSQLKAGKGLTIVGSVLEGTYLDKHMEAQRAEENIRSLMSTEKTKGFCQLVVSSSLRDGMSHLIQSAGLGGLKHNTVLMAWPASWKQEDNPFSWKNFVDTVRDTTAAHQALLVAKNVDSFPQNQERFGGGHIDVWWIVHDGGMLMLLPFLLRQHKVWRKCRMRIFTVAQVDDNSIQMKKDLQMFLYHLRISAEVEVVEMVENDISAFTYERTLMMEQRSQMLKQMQLSKNEQEREAQLIHDRNTASHTAAAARTQAPPTPDKVQMTWTREKLIAEKYRSRDTSLSGFKDLFSMKPDQSNVRRMHTAVKLNGVVLNKSQDAQLVLLNMPGPPKNRQGDENYMEFLEVLTEGLNRVLLVRGGGREVITIYS
binding: binds
